The experiment addresses HIV-1 49.5 Env (NL43 Env carrying the V3 region of the Ba-L isolate) (HIV-1 NL43 | HIV-1 Ba-L). Nature of the experiment: co-IP; filtered cell-free supernatants of co-transfected HEK293T cells (molecular clone and hMRC1-3xHA) pelleted by ultracentrifugation, suspended in 1 mL CoIP lysis buffer; precipitated with Env-specific antiserum; blots for Env, HA, tubulin, HIV-Ig.

Consider one molecule from article PMC10612104.

These are yes or no findings as the source states them, for the method shown. In cells and extracts the contact can be indirect. A result given as binding can be weak or reduced; the word gives no strength. Tags and fused reporters may be left off the sequences shown.

B1: C-terminally HA-tagged hMRC1 (hMRC1-3xHA) (receptor, UniProt P22897 1-1456)
chain: MRLPLLLVFASVIPGAVLLLDTRQFLIYNEDHKRCVDAVSPSAVQTAACNQDAESQKFRWVSESQIMSVAFKLCLGVPSKTDWVAITLYACDSKSEFQKWECKNDTLLGIKGEDLFFNYGNRQEKNIMLYKGSGLWSRWKIYGTTDNLCSRGYEAMYTLLGNANGATCAFPFKFENKWYADCTSAGRSDGWLWCGTTTDYDTDKLFGYCPLKFEGSESLWNKDPLTSVSYQINSKSALTWHQARKSCQQQNAELLSITEIHEQTYLTGLTSSLTSGLWIGLNSLSFNSGWQWSDRSPFRYLNWLPGSPSAEPGKSCVSLNPGKNAKWENLECVQKLGYICKKGNTTLNSFVIPSESDVPTHCPSQWWPYAGHCYKIHRDEKKIQRDALTTCRKEGGDLTSIHTIEELDFIISQLGYEPNDELWIGLNDIKIQMYFEWSDGTPVTFTKWLRGEPSHENNRQEDCVVMKGKDGYWADRGCEWPLGYICKMKSRSQGPEIVEVEKGCRKGWKKHHFYCYMIGHTLSTFAEANQTCNNENAYLTTIEDRYEQAFLTSFVGLRPEKYFWTGLSDIQTKGTFQWTIEEEVRFTHWNSDMPGRKPGCVAMRTGIAGGLWDVLKCDEKAKFVCKHWAEGVTHPPKPTTTPEPKCPEDWGASSRTSLCFKLYAKGKHEKKTWFESRDFCRALGGDLASINNKEEQQTIWRLITASGSYHKLFWLGLTYGSPSEGFTWSDGSPVSYENWAYGEPNNYQNVEYCGELKGDPTMSWNDINCEHLNNWICQIQKGQTPKPEPTPAPQDNPPVTEDGWVIYKDYQYYFSKEKETMDNARAFCKRNFGDLVSIQSESEKKFLWKYVNRNDAQSAYFIGLLISLDKKFAWMDGSKVDYVSWATGEPNFANEDENCVTMYSNSGFWNDINCGYPNAFICQRHNSSINATTVMPTMPSVPSGCKEGWNFYSNKCFKIFGFMEEERKNWQEARKACIGFGGNLVSIQNEKEQAFLTYHMKDSTFSAWTGLNDVNSEHTFLWTDGRGVHYTNWGKGYPGGRRSSLSYEDADCVVIIGGASNEAGKWMDDTCDSKRGYICQTRSDPSLTNPPATIQTDGFVKYGKSSYSLMRQKFQWHEAETYCKLHNSLIASILDPYSNAFAWLQMETSNERVWIALNSNLTDNQYTWTDKWRVRYTNWAADEPKLKSACVYLDLDGYWKTAHCNESFYFLCKRSDEIPATEPPQLPGRCPESDHTAWIPFHGHCYYIESSYTRNWGQASLECLRMGSSLVSIESAAESSFLSYRVEPLKSKTNFWIGLFRNVEGTWLWINNSPVSFVNWNTGDPSGERNDCVALHASSGFWSNIHCSSYKGYICKRPKIIDAKPTHELLTTKADTRKMDPSKPSSNVAGVVIIVILLILTGAGLAAYFFYKKRRVHLPQEGAFENTLYFNSQSSPGTSDMKDLVGNIEQNEHSVI
Take B1: the binding entry was “binds weakly”.
